PubChem BioAssay AID652272 | Drosophila RNAi Screening Center, 2013
Assay: 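Genes whose knock-down decreases or increases Hedgehog reporter output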 (primary screen). Cells: Drosophila clone 8 (Cl8) cells. Reagent: long dsRNA against Drosophila genes. Measured: 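Plate reader light from a firefly reporter under a ptc promoter fragment that responds to Hedgehog, with Renilla light as transfection reference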. Direction: firefly Hh reporter signal: higher = more ptc reporter light; Renilla reference signal: higher = more Renilla control light. Rule for the call: 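Called a hit if the two-replicate mean z-score lies below -2 or above +3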. Meaning of the calls: active = hit: reporter lowered or raised; inactive = not a hit.
The screen tested about 21,000 reagents; this is an unselected part of those with a known target gene and a result. In the full data, 503 (2.4%) are marked active. 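Raw plate light values, not normalised; calls rest on replicate z-scores that were not deposited; hits include reporter decreases as well as increases.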 A number with no mark means an inactive call. The numbers tell different reagents against one gene apart. A plus sign joins genes that one reagent is predicted to hit. Not given: the amount of reagent, the time to read-out.

no.	gene knocked down	dsRNA no.	firefly Hh reporter signal, replicate 1	firefly Hh reporter signal, replicate 2	firefly Hh reporter signal, replicate 3	Renilla reference signal, replicate 1	Renilla reference signal, replicate 2
1	CG11839	1	6.16e5	92997		32118	3239
2	CG12301	1	90528	55795		3845	2743
3	tko (technical knockout)	1	66168	2.71e5		2297	8363
4	QC (Glutaminyl cyclase)	1	1.05e5	85728		5445	3808
5	CG31344	1	1.14e5	1.01e5		4086	3232
6	Cpr72Eb (Cuticular protein 72Eb)	1	1.01e5			6893	3213
7	Tdrd3 (Tudor domain containing 3)	1	90576			2193	2934
8	BaraA1 + BaraA2	1	1.76e5	2.25e5		4377	9300
9	CG31098	1	5.90e5	1.19e5		25799	3255
10	CG8613	1	1.32e5	71930		4657	2778
11	wit (wishful thinking)	1	1.28e5	1.21e5		4346	4729
12	CtsK2 (Cathepsin K2)	1	75056	53078		3828	2483
13	Lim1 (LIM homeobox 1)	1	1.14e5	1.16e5		2813	2765
14	Lim1 (LIM homeobox 1)	2	1.44e5	7.09e5	4.61e5	2938	7144
15	dlp (dally-like)	1	32049	40826		1611	1568
16	dlp (dally-like)	2	37728			1508	1293
17	CG7706	1	72704	81308		3249	2896
18	CG13876	1	71573	36804		2330	2732
19	Gbeta13F (G protein beta subunit 13F)	1	92518	61901		2185	1537
20	Usp7 (Ubiquitin-specific protease 7)	1	5.28e5	2.18e5		26614	5074
21	Usp7 (Ubiquitin-specific protease 7)	2	1.04e5	3.59e5		3482	14224
22	l(3)L1231 (lethal (3) L1231)	1	98760	71146		4307	3190
23	Sox21a	1	90822			3792	2848
24	CG14095	1	1.33e5	1.07e5		4728	2904
25	CG6059	1	1.33e5	58688		2854	1702
26	CG5768	1	1.20e5	1.27e5		4752	4825
27	Alh (Alhambra)	1	68520			2253	
28	Alh (Alhambra)	2	57661	84931		2493	2432
29	Alh (Alhambra)	3	78237	73824		2941	2245
30	CG4287	1	1.37e5	63216		6000	2555
31	CG9519	1	1.37e5	95444		3149	2583
32	CG1468	1	82784	83472		2197	1952
33	Wsck	1	52307	1.74e5		12412	3969
34	Rat1 (Rat1 5'-3' exoribonuclease)	1	1.08e5	36267		5222	2240
35	CG34202	1	82365	1.93e5		2077	8983
36	dos	1	41260	73253		1269	3181
37	dos	2	69099	32889		1920	2497

No new results follow: 4 of the entries above.
no.	gene knocked down	dsRNA no.	firefly Hh reporter signal, replicate 1	firefly Hh reporter signal, replicate 2	firefly Hh reporter signal, replicate 3	Renilla reference signal, replicate 1	Renilla reference signal, replicate 2
20	Usp7 (Ubiquitin-specific protease 7)	1	5.28e5	2.18e5		26614	5074
21	Usp7 (Ubiquitin-specific protease 7)	2	1.04e5	3.59e5		3482	14224
22	l(3)L1231 (lethal (3) L1231)	1	98760	71146		4307	3190
23	Sox21a	1	90822			3792	2848

More results follow.
no.	gene knocked down	dsRNA no.	firefly Hh reporter signal, replicate 1	firefly Hh reporter signal, replicate 2	firefly Hh reporter signal, replicate 3	Renilla reference signal, replicate 1	Renilla reference signal, replicate 2
38	Ser6 (Serine protease 6)	1	1.50e5	2.40e5		5923	10786
39	CG1492	1	1.58e5 (active)	58028		3538	901
40	pb (proboscipedia)	1	1.94e5			3920	
41	pb (proboscipedia)	2	68768	71124		2972	2151
42	CG16956	1	76180	40903		2454	4660
43	Gpxl (Glutathione peroxidase-like)	1	68572	58729		1172	4166
44	imd (immune deficiency)	1	70120	85133		3101	3200
45	Fer1 (48 related 1)	1	87184	1.16e5		3801	3557
46	Fer1 (48 related 1)	2	1.09e5	1.23e5		4144	3785
47	GABPI (beta4GalNAcTB pilot)	1	76192	91219		3202	3757
48	fzy (fizzy)	1	58652	18037		1744	1938
49	CG32599	1	1.13e5	59498		2584	1537
50	CG42784	1	1.37e5	1.37e5		6041	4818
51	CG42784	2	83398	22368		2214	2145
52	Pgant3 (Polypeptide N-Acetylgalactosaminyltransferase 3)	1	91661	68761		3485	2753
53	BI-1 (Bax Inhibitor-1)	1	48122	84626		2368	3253
54	CG3097	1	93877	2.09e5		3363	7306
55	GAPsec (GTPase activating protein, SECIS-dependent read-through)	1	1.17e5	70647		4923	2897
56	slgA (sluggish A)	1	1.68e5	1.36e5		3853	3412
57	AlaRS-m (Alanyl-tRNA synthetase, mitochondrial)	1	1.16e5	46396		4300	1808
